Assay results reported in paper PMC5303827 (Nature Communications, 2017).
These are yes or no findings as the source states them, for the method shown.

The chains behind the UniProt entries cited, without tags or fusion partners.
UniProt P54860: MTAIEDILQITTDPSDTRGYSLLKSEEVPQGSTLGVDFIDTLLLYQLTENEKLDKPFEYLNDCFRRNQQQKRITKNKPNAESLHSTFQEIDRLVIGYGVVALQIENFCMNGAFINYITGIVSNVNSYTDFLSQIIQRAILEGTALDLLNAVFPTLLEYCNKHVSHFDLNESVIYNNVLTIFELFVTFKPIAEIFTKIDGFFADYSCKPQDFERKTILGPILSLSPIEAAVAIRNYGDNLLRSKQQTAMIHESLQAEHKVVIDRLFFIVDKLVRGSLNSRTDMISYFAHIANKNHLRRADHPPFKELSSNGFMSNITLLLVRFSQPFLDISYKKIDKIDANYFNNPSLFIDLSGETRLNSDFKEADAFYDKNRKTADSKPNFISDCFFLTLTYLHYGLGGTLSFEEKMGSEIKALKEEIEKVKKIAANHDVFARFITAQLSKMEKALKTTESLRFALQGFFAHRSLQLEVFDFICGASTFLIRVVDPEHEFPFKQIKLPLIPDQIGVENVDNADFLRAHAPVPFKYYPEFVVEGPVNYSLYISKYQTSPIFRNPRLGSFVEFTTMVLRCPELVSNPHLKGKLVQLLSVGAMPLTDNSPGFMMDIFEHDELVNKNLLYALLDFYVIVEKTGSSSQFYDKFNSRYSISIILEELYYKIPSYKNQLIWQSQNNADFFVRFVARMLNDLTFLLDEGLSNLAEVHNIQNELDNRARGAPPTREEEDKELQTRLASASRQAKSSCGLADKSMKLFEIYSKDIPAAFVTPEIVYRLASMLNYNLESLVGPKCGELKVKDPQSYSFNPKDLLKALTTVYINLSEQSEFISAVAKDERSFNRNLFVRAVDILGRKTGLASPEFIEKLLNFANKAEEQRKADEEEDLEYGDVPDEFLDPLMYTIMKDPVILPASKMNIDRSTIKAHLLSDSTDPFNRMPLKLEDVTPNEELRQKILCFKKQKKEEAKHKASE

Biological target: GST-Ufd2p (S. cerevisiae) (UniProt P54860)
Assay: pull-down; equal amounts of GST-Ufd2p and untagged Ufd2p mixed with increasing amounts of Lys29-linked Ubn-GFP; GST beads; blot with anti-Ufd2; both purified

binding: no binding
Substance: GST-Ufd2p (from UniProt P54860 1-961) (enzyme)
